Assays:
primary AML samples = experiment: HLA class II ligandome analysis (LC-MS/MS) of primary AML samples; design: species or system human; conditions: HLA class II ligandome, AML patients n=12
[1] = tested on: cancer tissues in comparison to non-cancerous tissues and organs; experiment: Presentation profile / over-presentation by label-free LC-MS (XPRESIDENT), tumor versus normal tissues, other proliferative diseases; design: species or system human; conditions: other proliferative diseases / organs (other than AML) that over- or exclusively present the peptide; Table 5

Row | Substance | Number of positive AMLs (primary AML samples) | Proliferative disease and location thereof [1]
1 | 486 (SDSNEFSVIADPRGNTLG; listed as Homo sapiens) [compound 486] | 1 | liver, hepatocellular carcinoma, cancer, thyroid; gland, nodular hyperplasia
2 | 467 (VRPGGVVHSFSHNVGPGDK; listed as Homo sapiens) [compound 467] | 1 | liver, hepatocellular carcinoma, cancer, lung, adenocarcinoma
3 | 546 (ALDFFGNGPPVNYKTG; listed as Homo sapiens) [compound 546] | 1 | lung, non-small cell lung carcinoma, bone, non- ossifying fibroma
4 | 493 (LPQLVGVSTPLQGG; listed as Homo sapiens) [compound 493] | 1 | kidney, clear cell renal cell carcinoma, endometrium, adenocarcinoma
5 | 563 (FGAIFFLPDSSK; listed as Homo sapiens) [compound 563] | 1 | stomach, metastatic, liver, hepatic adenoma
6 | 464 (GVVHSFSHNVGPGDKYT; listed as Homo sapiens) [compound 464] | 1 | liver, hepatocellular carcinoma, cancer, lung, adenocarcinoma
7 | 582 (DVFRQYASLTGTQALPP; listed as Homo sapiens) [compound 582] | 1 | liver, hepatocellular carcinoma, cancer, small intestine, gastrointestinal stromal tumor
8 | 556 (IVIALSGNKADLA; listed as Homo sapiens) [compound 556] | 1 | brain, glioblastoma, endometrium, adenocarcinoma
9 | 497 (GRRKSRQGSLAMEELK; listed as Homo sapiens) [compound 497] | 1 | rectum, adenocarcinoma
10 | 592 (FRIDSVSEGNAGP; listed as Homo sapiens) [compound 592] | 1 | pancreas, adenocarcinoma, lipoma
11 | 470 (AQPILSKLEPQIASASE; listed as Homo sapiens) [compound 470] | 1 | pancreas, adenocarcinoma, bone, giant cell tumor; of bone
12 | 589 (EARFRIDSVSEGNAGP; listed as Homo sapiens) [compound 589] | 1 | pancreas, adenocarcinoma, lipoma
13 | 536 (DTSYVSLKAPLTKP; listed as Homo sapiens) [compound 536] | 1 | liver, hepatocellular carcinoma, cancer
14 | 570 (SSPALQPAADHKPGPG; listed as Homo sapiens) [compound 570] | 1 | stomach, metastatic, liver, hepatic adenoma
15 | 551 (AISDYVFNTASLVYH; listed as Homo sapiens) [compound 551] | 1 | liver, hepatocellular carcinoma, cancer
16 | 514 (GRPFADVLSLSDGPPG; listed as Homo sapiens) [compound 514] | 1 | lung, non-small cell lung carcinoma, liver, hepatocellular carcinoma
17 | 513 (DWGALATISTLEAVRG; listed as Homo sapiens) [compound 513] | 1 | lung, non-small cell lung carcinoma, liver, hepatocellular carcinoma
18 | 583 (GTAQGELFLDDGHT; listed as Homo sapiens) [compound 583] | 1 | liver, hepatocellular carcinoma, cancer, small intestine, gastrointestinal stromal tumor
19 | 474 (KGVRTLTAAAVSGAQ; listed as Homo sapiens) [compound 474] | 1 | pancreas, adenocarcinoma, bone, giant cell tumor; of bone

— patent publication US10525115B2 (Immatics Biotechnologies GmbH, priority 2014, dated 2020)
